According to the supplement of paper PMC12889115:
The list shows a part of the results. These are raw signals, not scaled to a control.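 In the initial screen, polymyxin B was used at a concentration that permeabilizes Salmonella's outer membrane but not its inner membrane. Maximum growth was set by DMSO wells with or without polymyxin B. Since plates varied, data were ranked per plate, and compounds giving the lowest OD600 advanced as hits.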

Tested on: Salmonella enterica serovar Typhimurium SL1344
Assay: bacterial growth OD600 after 18 h with compound and polymyxin B; higher = more bacterial growth (less inhibition)
Settings: 50 µM, Mueller-Hinton broth

SMILES | bacterial growth OD600 (polymyxin B 0.75 µg/mL) | bacterial growth OD600 (polymyxin B 1 µg/mL)
CC(Cc1cc(C(=O)NCc2cccc(Cl)c2)on1)c1ccccc1 (stereo not given) | 0.632 | 
COc1ccc(OCC(=O)N2CCCC(Nc3ccc(C)c(C)c3)C2)cc1 (stereo not given) |  | 0.647
CCOC(=O)CC1CCCCN1Cc1cnc(S(=O)(=O)CC)n1Cc1ccccc1 (stereo not given) | 0.916 | 
CCN1CCC(N2CCCC(N3CCN(c4cccc(C(F)(F)F)c4)CC3)C2)CC1 (stereo not given) |  | 0.927
O=C(N[C@H]1CCCCNC1=O)c1ccc(N2CCC(NC[C@H]3CCc4ccccc4O3)CC2)cc1 | 0.877 | 
COc1ccc(OCc2nc(C(=O)NCc3ccncc3)co2)cc1 |  | 1.01
CN(Cc1ccc(F)cc1)c1ccc(OCC(=O)NCCc2nc(-c3cccnc3)n[nH]2)nn1 | 0.896 | 
CC(=O)N1CCCN(c2nc3nonc3nc2N2CCCCCC2)CC1 |  | 1.12
CCCc1cc(CN(C)C(=O)CC2(c3cccc(C(F)(F)F)c3)CC(=O)N(CC)C2=O)n[nH]1 (stereo not given) | 0.005 | 
CCNC(=O)N1CCCC(CCc2ccc(OC)cc2)C1 (stereo not given) | 0.871 | 
Cc1cccc(CN2CCC(Oc3ccccc3C(=O)N3CCCC3)CC2)c1 |  | 1.1
CCCCc1nc(CN2CCC(C(=O)Nc3ccc(-n4cccn4)cc3)CC2)c[nH]1 |  | 0.943
Cc1ncoc1C(=O)N1CCC(n2nccc2NC(=O)CCOc2ccccc2)CC1 |  | 0.923
COc1cccc(CN2CCCC3(CCN(C(=O)C(C)(C)C)C3)C2=O)c1OC (stereo not given) |  | 0.8
C/C=C(\C)CN1CCC(C2CCN(Cc3cccnc3)CC2)C1 (stereo not given) | 0.998 | 
O=C(CCC1CCN(C(=O)CCn2cccn2)CC1)Nc1ccc(F)c(Cl)c1 |  | 0.966
Cc1nnc(-c2cccc(NC(=O)C3CCCCN3C(=O)C3CCCC3)c2)s1 (stereo not given) |  | 0.901
Cc1nc(N2CCCCCCC2)ncc1C(C)NCc1ccsc1 (stereo not given) |  | 0.001
Cc1cccc(NC(=O)CCC2CCN(C(=O)C3=NN(C)C(=O)CC3)CC2)c1 |  | 0.975
CCO[C@H]1[C@H](NC(=O)CC)c2ccccc2C12CCN(C(=O)c1ccc(C#CC(C)(C)O)o1)CC2 | 0.858 | 
CN(C)S(=O)(=O)N1CCC(Oc2ccc(C(=O)NCCN3CCCCC3)cc2)CC1 |  | 1.2
O=C(NCc1cnc(-c2ccccc2)s1)c1coc(CN2CCc3ccccc3C2)n1 |  | 0.787
CC(C)Cn1cc(C(=O)N2CCCCCC2)c(=O)c(C(=O)N2CCN(c3ccc(Cl)cc3)CC2)c1 | 0.81 | 
CSCCC(=O)N1CCc2onc(-c3ccc4c(c3)OCO4)c2C1 | 0.904 | 
Cc1nc(N2CCC(C(=O)NCc3ccc(F)c(F)c3)CC2)nc2cc(S(C)(=O)=O)ccc12 | 0.799 | 
OCC1(CCc2ccccc2)CCCN(Cc2c[nH]cn2)C1 (stereo not given) | 0.942 | 
COc1ncccc1C(=O)NCC1Cc2cc(-c3nc(C)cnc3C)ccc2O1 (stereo not given) | 0.928 | 
OCC1CCN(c2ncc3c(n2)CCCC3NCC2CCCC2)CC1 (stereo not given) | 0.774 | 
CCCC(=O)N1CCC(N2CCCC(C(=O)NC3CC3)C2)CC1 (stereo not given) | 0.891 | 
CSCC(=O)N1CCC(C2CCN(CCc3ccccc3)CC2)C1 (stereo not given) |  | 0.957

An excerpt from above in order of heavy-atom count, low to high:
SMILES | bacterial growth OD600 (polymyxin B 0.75 µg/mL) | bacterial growth OD600 (polymyxin B 1 µg/mL)
Cc1cccc(NC(=O)CCC2CCN(C(=O)C3=NN(C)C(=O)CC3)CC2)c1 |  | 0.975
CCN1CCC(N2CCCC(N3CCN(c4cccc(C(F)(F)F)c4)CC3)C2)CC1 (stereo not given) |  | 0.927
CCCc1cc(CN(C)C(=O)CC2(c3cccc(C(F)(F)F)c3)CC(=O)N(CC)C2=O)n[nH]1 (stereo not given) | 0.005 | 
